# The list shows a part of the results.
# B1: GST-Gap1 (Streptococcus parasanguinis), A1C3L5 (protein)
# chain: MFYFVPSWYNGQRQWYYDTPWWFRVKNRMTFDDSVNQVKMFLQGQEEIGLMILNYQPQLRYFLHKQNIFGIYYWSFFDDIQNITRSYTKIIHLKDLNWPEGCEFLYSPFAVVVRLKGEIFAIVNYAEDGNLHSVSFQKNGKVTKDYIFDDRGFLSSILYYDIDERPLYQDYLNINGVWQVREFLKKENDPTPILMINDFSDQTFSKKYYNGWEELIKERLAIFQNNHVENEDVFVLASDTQHNQLVSSIFKEHRKIYSFFGNRFNLENLGQDRISINDATFLVVDTEKNEELLRKTCENLVFKSIPIVRLSPFDSRLRLGHSQTVKEQIIYFHIDNIELDELYSVIAIILELMTLHLDIELRIVTFRQDFQLDLLKTWIIDFIKTNHFEDLLFKQISEGENEIEDEGEIELSRIAMECFTNENQIIKCLDTARLVIDLGIEPDLYTQIASISAGIPQINRVSSDYVIHQKNGLVISDISKLSSAIEFYFDGLFNWNEALIYAVRKMSDYTSGKILKQWKGMLKKK
# Experiments:
# Test in all cases: glycan array binding signal (z-score within array); higher = stronger binding
# Conditions in all cases: glycan notation: IUPAC condensed, linker removed
# [1] = target: Gal(a1-3)Gal(b1-4)GlcNAc(b1-2)Man
# Method in brief: (§1)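 The binding signal is a Z-score computed within each array and averaged over linkers. Arrays of the same protein sequence at different concentrations or buffers were also averaged together. Data originate from 3228 arrays in the Consortium for Functional Glycomics database, kept only where the protein sequence was available.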
# [2] = target: Gal(a1-3)Gal(b1-4)GlcNAc(b1-2)Man(a1-3)[Gal(a1-3)Gal(b1-4)GlcNAc(b1-2)Man(a1-6)]Man(b1-4)GlcNAc(b1-4)GlcNAc
# Method in brief: as §1
# [3] = target: Gal(a1-3)Gal(b1-4)GlcNAc(b1-3)GalNAc
# Method in brief: as §1
# [4] = target: Gal(a1-3)Gal(b1-4)GlcNAc(b1-6)GalNAc
# Method in brief: as §1
# [5] = target: Gal(a1-3)Gal(b1-4)[Fuc(a1-3)]GlcNAc
# Method in brief: as §1
# [6] = target: Gal(a1-3)Gal(b1-4)[Fuc(a1-3)]GlcNAc(b1-2)Man(a1-3)[Gal(a1-3)Gal(b1-4)[Fuc(a1-3)]GlcNAc(b1-2)Man(a1-6)]Man(b1-4)GlcNAc(b1-4)GlcNAc
# Method in brief: as §1
# [7] = target: Gal(a1-3)GalNAc
# Method in brief: as §1
# [8] = target: Gal(a1-3)[Gal(a1-4)]Gal(b1-4)GlcNAc
# Method in brief: as §1
# [9] = target: Gal(a1-4)Gal(b1-3)GlcNAc(b1-2)Man(a1-3)[Gal(a1-4)Gal(b1-3)GlcNAc(b1-2)Man(a1-6)]Man(b1-4)GlcNAc(b1-4)GlcNAc
# Method in brief: as §1
# [10] = target: Gal(a1-4)Gal(b1-4)Glc
# Method in brief: as §1
# [11] = target: Gal(a1-4)Gal(b1-4)GlcNAc
# Method in brief: as §1
# [12] = target: Gal(a1-4)Gal(b1-4)GlcNAc(b1-2)Man(a1-3)[Gal(a1-4)Gal(b1-4)GlcNAc(b1-2)Man(a1-6)]Man(b1-4)GlcNAc(b1-4)GlcNAc
# Method in brief: as §1
# [13] = target: Gal(a1-4)Gal(b1-4)GlcNAc(b1-3)Gal(b1-4)Glc
# Method in brief: as §1
# [14] = target: Gal(a1-4)GlcNAc
# Method in brief: as §1
# [15] = target: Gal(a1-6)Glc
# Method in brief: as §1
# [16] = target: Gal(b1-2)Gal
# Method in brief: as §1
# [17] = target: Gal(b1-3)Gal
# Method in brief: as §1
# [18] = target: Gal(b1-3)Gal(b1-4)GlcNAc
# Method in brief: as §1
# [19] = target: Gal(b1-3)Gal(b1-4)GlcNAc(b1-2)Man(a1-3)[Gal(b1-3)Gal(b1-4)GlcNAc(b1-2)Man(a1-6)]Man(b1-4)GlcNAc(b1-4)GlcNAc
# Method in brief: as §1
# [20] = target: Gal(b1-3)GalNAc
# Method in brief: as §1
# [21] = target: Gal(b1-3)GalNAc(a1-3)[Fuc(a1-2)]Gal(b1-4)Glc
# Method in brief: as §1
# [22] = target: Gal(b1-3)GalNAc(a1-3)[Fuc(a1-2)]Gal(b1-4)GlcNAc
# Method in brief: as §1
# [23] = target: Gal(b1-3)GalNAc(b1-3)Gal
# Method in brief: as §1
# [24] = target: Gal(b1-3)GalNAc(b1-3)Gal(a1-4)Gal(b1-4)Glc
# Method in brief: as §1
# [25] = target: Gal(b1-3)GalNAc(b1-4)Gal(b1-4)Glc
# Method in brief: as §1
# [26] = target: Gal(b1-3)GalNAc(b1-4)[Neu5Ac(a2-3)]Gal(b1-4)Glc
# Method in brief: as §1
# [27] = target: Gal(b1-3)GlcNAc
# Method in brief: as §1
# [28] = target: Gal(b1-3)GlcNAc(a1-3)Gal(b1-4)GlcNAc
# Method in brief: as §1
# [29] = target: Gal(b1-3)GlcNAc(a1-6)Gal(b1-4)GlcNAc
# Method in brief: as §1
# [30] = target: Gal(b1-3)GlcNAc(b1-2)Man
# Method in brief: as §1
# [31] = target: Gal(b1-3)GlcNAc(b1-2)Man(a1-3)[Gal(b1-3)GlcNAc(b1-2)Man(a1-6)]Man(b1-4)GlcNAc(b1-4)GlcNAc
# Method in brief: as §1
# [32] = target: Gal(b1-3)GlcNAc(b1-2)Man(a1-3)[Gal(b1-3)GlcNAc(b1-2)Man(a1-6)]Man(b1-4)GlcNAc(b1-4)[Fuc(a1-6)]GlcNAc
# Method in brief: as §1
# [33] = target: Gal(b1-3)GlcNAc(b1-2)Man(a1-3)[GlcNAc(b1-4)][Gal(b1-3)GlcNAc(b1-2)Man(a1-6)]Man(b1-4)GlcNAc(b1-4)GlcNAc
# Method in brief: as §1
# [34] = target: Gal(b1-3)GlcNAc(b1-2)[Gal(b1-3)GlcNAc(b1-6)]Man(a1-6)[Gal(b1-3)GlcNAc(b1-2)Man(a1-3)]Man(b1-4)GlcNAc(b1-4)GlcNAc
# Method in brief: as §1
# [35] = target: Gal(b1-3)GlcNAc(b1-3)Gal(b1-3)GlcNAc
# Method in brief: as §1
# [36] = target: Gal(b1-3)GlcNAc(b1-3)Gal(b1-4)Glc
# Method in brief: as §1
# [37] = target: Gal(b1-3)GlcNAc(b1-3)Gal(b1-4)GlcNAc
# Method in brief: as §1
# [38] = target: Gal(b1-3)GlcNAc(b1-3)Gal(b1-4)GlcNAc(b1-2)Man(a1-3)[Gal(b1-3)GlcNAc(b1-3)Gal(b1-4)GlcNAc(b1-2)Man(a1-6)]Man(b1-4)GlcNAc(b1-4)GlcNAc
# Method in brief: as §1
binder,measurement,setting,value
B1,glycan array binding signal (z-score),[1],-0.219
same,glycan array binding signal (z-score),[2],0.421
same,glycan array binding signal (z-score),[3],0.13
same,glycan array binding signal (z-score),[4],-1.74
same,glycan array binding signal (z-score),[5],0.06
same,glycan array binding signal (z-score),[6],0.577
same,glycan array binding signal (z-score),[7],-0.266
same,glycan array binding signal (z-score),[8],-0.075
same,glycan array binding signal (z-score),[9],0.314
same,glycan array binding signal (z-score),[10],-0.507
same,glycan array binding signal (z-score),[11],0.205
same,glycan array binding signal (z-score),[12],0.243
same,glycan array binding signal (z-score),[13],-0.321
same,glycan array binding signal (z-score),[14],0.216
same,glycan array binding signal (z-score),[15],-0.438
same,glycan array binding signal (z-score),[16],0.47
same,glycan array binding signal (z-score),[17],0.747
same,glycan array binding signal (z-score),[18],0.416
same,glycan array binding signal (z-score),[19],13.5
same,glycan array binding signal (z-score),[20],-0.397
same,glycan array binding signal (z-score),[21],-0.01
same,glycan array binding signal (z-score),[22],-0.511
same,glycan array binding signal (z-score),[23],-0.736
same,glycan array binding signal (z-score),[24],-0.565
same,glycan array binding signal (z-score),[25],0.476
same,glycan array binding signal (z-score),[26],-0.353
same,glycan array binding signal (z-score),[27],-0.046
same,glycan array binding signal (z-score),[28],0.253
same,glycan array binding signal (z-score),[29],-0.654
same,glycan array binding signal (z-score),[30],2.06
same,glycan array binding signal (z-score),[31],0.828
same,glycan array binding signal (z-score),[32],0.267
same,glycan array binding signal (z-score),[33],-1.62
same,glycan array binding signal (z-score),[34],1.95
same,glycan array binding signal (z-score),[35],0.343
same,glycan array binding signal (z-score),[36],0.424
same,glycan array binding signal (z-score),[37],0.226
same,glycan array binding signal (z-score),[38],0.301

# An excerpt of these results, with tabs:
binder	measurement	setting	value
B1	glycan array binding signal (z-score)	[37]	0.226
same	glycan array binding signal (z-score)	[38]	0.301
